Data reported in PubChem BioAssay (NCATS).
Inconclusive results, whose numbers are uncertain, are shown with a selection of clear calls. For part of these data: A potency beside an inconclusive call is a rough fit, not a confirmed value. The source made the active and inactive calls. Calls come from the whole dose curve; as a rule, active = well fitted curve in the direction sought with a large enough effect; inconclusive = small, poorly fitted or top-dose-only effect, or another doubt; inactive = no such curve, though single readings can be large; an effect the other way counts as inactive or inconclusive.

By UniProt entry, the sequences of proteins in these tests, tags left out. Where a name states a change or a piece, a line headed by the entry shows the natural chain unless it says otherwise.
UniProt P27695, whole entry, looked up: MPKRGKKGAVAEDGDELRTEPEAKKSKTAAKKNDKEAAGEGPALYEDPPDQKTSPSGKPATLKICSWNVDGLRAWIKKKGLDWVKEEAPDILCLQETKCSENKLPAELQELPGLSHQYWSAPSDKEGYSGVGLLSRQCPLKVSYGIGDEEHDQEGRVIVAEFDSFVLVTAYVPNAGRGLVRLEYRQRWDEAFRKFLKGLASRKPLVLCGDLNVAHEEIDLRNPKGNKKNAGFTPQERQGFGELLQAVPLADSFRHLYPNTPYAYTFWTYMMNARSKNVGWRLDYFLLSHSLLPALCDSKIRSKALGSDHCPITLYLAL
UniProt Q9NUW8, whole entry, looked up: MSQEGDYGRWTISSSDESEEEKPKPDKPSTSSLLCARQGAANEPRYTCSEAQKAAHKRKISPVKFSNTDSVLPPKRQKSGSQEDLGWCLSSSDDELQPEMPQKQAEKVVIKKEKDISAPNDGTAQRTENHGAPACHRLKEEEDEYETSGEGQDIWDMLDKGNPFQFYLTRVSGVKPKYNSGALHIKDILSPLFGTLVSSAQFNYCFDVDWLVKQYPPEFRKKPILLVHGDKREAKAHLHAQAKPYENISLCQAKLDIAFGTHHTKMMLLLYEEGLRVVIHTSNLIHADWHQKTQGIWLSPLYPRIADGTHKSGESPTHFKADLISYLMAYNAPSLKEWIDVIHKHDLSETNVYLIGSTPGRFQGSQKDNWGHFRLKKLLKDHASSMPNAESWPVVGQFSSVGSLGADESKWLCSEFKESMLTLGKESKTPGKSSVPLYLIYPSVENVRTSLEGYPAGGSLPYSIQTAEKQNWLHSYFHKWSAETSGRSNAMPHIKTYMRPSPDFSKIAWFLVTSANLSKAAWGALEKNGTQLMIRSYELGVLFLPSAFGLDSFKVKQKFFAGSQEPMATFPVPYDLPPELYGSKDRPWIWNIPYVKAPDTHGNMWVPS
UniProt A8B2U2: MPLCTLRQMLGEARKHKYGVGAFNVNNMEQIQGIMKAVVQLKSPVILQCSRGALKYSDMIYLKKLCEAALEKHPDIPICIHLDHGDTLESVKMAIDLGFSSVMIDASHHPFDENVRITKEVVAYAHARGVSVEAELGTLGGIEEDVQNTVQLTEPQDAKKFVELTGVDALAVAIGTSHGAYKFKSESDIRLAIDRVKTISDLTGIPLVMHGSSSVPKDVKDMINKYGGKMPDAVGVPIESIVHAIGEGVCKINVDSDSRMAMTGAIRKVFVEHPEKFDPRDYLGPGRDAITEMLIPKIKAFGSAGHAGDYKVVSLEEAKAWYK

Assays:
[1] = Counterscreen for APE1 Inhibitors: Fluorescent Dye Displacement Assay (AID 2564); settings: DNA fluorescent dye displacement counterscreen, fluorescence; series mostly up to 28.5 µM;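 note: loss of thiazole orange fluorescence as the dye is displaced from duplex DNA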; note: potency is the fitted concentration of half-maximal effect
How it was run: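 Loss of Thiazole Orange fluorescence marks promiscuous DNA binders. The dye (250 nM) is mixed with 50 nM abasic-site dsDNA in pH7.5 Tris buffer containing MgCl2, then compounds are added and emission is read once.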

[2] = target: DNA repair nuclease/redox regulator APEX1 (Homo sapiens) (UniProt P27695); experiment: qHTS FP-Based Assay for Inhibitors of the Human Apurinic/apyrimidinic Endonuclease 1 (APE1) (AID 2573); settings: APE1 binding to TAMRA-labelled double-stranded DNA, fluorescence polarization displacement; series mostly up to 28.5 µM; note: potency is the fitted concentration of half-maximal effect
[3] = target: Tyrosyl-DNA phosphodiesterase 1 (Homo sapiens) (UniProt Q9NUW8); experiment: Confirmation Assay for Inhibitors of Tyrosyl-DNA Phosphodiesterase (TDP1) (AID 489007); settings: recombinant human TDP1 enzymatic activity, dose-response; note: potency is the fitted concentration of half-maximal effect; nearly all actives have a fitted effect of over 40% in size
How it was run: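 Compounds are preincubated 15 min at room temperature with 1 nM recombinant human Tdp1. The reaction starts on adding 15 nM FITC-phosphotyrosine DNA substrate, runs 5 min, and is detected by AlphaScreen beads after 10 min.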

[4] = target: DNA repair nuclease/redox regulator APEX1 (Homo sapiens) (UniProt P27695); experiment: Confirmation qHTS Assay for Inhibitors of the Human Apurinic/apyrimidinic Endonuclease 1 (APE1) (AID 2572); settings: purified APE1, fluorogenic abasic-site DNA cleavage; series mostly up to 57.1 µM; note: potency is the fitted concentration of half-maximal effect; nearly all actives have a fitted effect of over 30% in size
How it was run: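 Confirmation qHTS in dose-response format: APE1 exposed to compound 15 min at RT, then reaction started with 50 nM final TAMRA/BHQ-2 abasic substrate. Three fluorescence reads 60 s apart; endpoint minus initial read gives progress.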

[5] = target: Fructose-bisphosphate aldolase (Giardia intestinalis (strain ATCC 50803 / WB clone C6)) (UniProt A8B2U2); experiment: qHTS Assay for Inhibitors of Fructose-1,6-bisphosphate Aldolase from Giardia Lamblia: Primary screen confirmation (AID 2787); settings: purified Giardia aldolase enzyme activity; series mostly up to 57.5 µM
How it was run: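 FBPA (40 nM in enzyme reagent, with 30 uM ZnCl2) was preincubated 10 min at RT with compound up to 57.5 uM final. Substrate plus coupled detection system was then added, and fluorescence (525/598 nm) was read after 20 min at RT.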

[6] = qHTS Assay for Inhibitors of Fructose-1,6-bisphosphate Aldolase from Giardia Lamblia: Coupling assay counterscreen confirmation (AID 2795); settings: GAPDH coupling enzyme counterscreen, biochemical; series mostly up to 57.5 µM
How it was run: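 Coupling-system counterscreen without aldolase: glyceraldehyde-3-phosphate coupling enzymes preincubated 10 min with compound (up to 57.5 uM final), then substrate and AmpLite Red detection added for 20 min at RT. Fluorescence read at 525/598 nm.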

[7] = qHTS for Inhibitors of Plasmodium falciparum (HB3) proliferation (AID 504318); note: nearly all actives have a fitted effect of over 60% in size; settings: P. falciparum HB3 in erythrocytes, SYBR Green DNA, 72 h
How it was run: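 Parasite growth measured as SYBR Green DNA fluorescence (ex 485, em 535 nm) after overnight lysis following 72 h culture at 37 °C, 0.3% parasitemia, 2.5% hematocrit. Values normalized against DMSO and 0.29 uM artemisinin controls, with plate-stack correction.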

COc1c(O)cc2c(=O)oc3c(OC)c(O)cc4c(=O)oc1c2c34
Potency [1]: active: 6.31 µM
Potency [2]: inactive

O=C1NN(c2ccccc2)C(=O)/C1=C/c1ccc(-c2ccc(Cl)c(C(=O)O)c2)o1
Potency [1]: inconclusive: 12.6 µM [inhibitor, partial curve]
Potency [2]: inconclusive: 15.8 µM [inhibitor, single point]
Potency [3]: active: 7.08 µM

Cc1cc(C=O)c(C)n1-c1ccc(Cl)c(C(=O)O)c1
Potency [1]: inactive
Potency [2]: inactive

O=c1cc(-c2ccc(O)cc2)oc2c(O)c(O)c(O)c(O)c12
Potency [1]: inactive
Potency [4]: active: 0.501 µM
Potency [5]: active: 20.6 µM
Potency [6]: inconclusive: 8.19 µM [inhibitor, partial curve, poor fit]

Cc1ccc([N+](=O)[O-])cc1-c1ccc(/C=C(\C#N)c2[nH]nc(N)c2C#N)o1
Potency [1]: active: 7.08 µM
Potency [2]: inactive

CCCCC1=CC2=C(c3ccco3)C(=O)C(C)(OC(=O)c3ccc(OC)cc3)C(=O)C2=CN1Cc1ccco1 (stereo unspecified)
Potency [1]: inactive
Potency [4]: inconclusive: 8.91 µM [inhibitor, partial curve]
Potency [7]: inactive

O=C1CC(=O)N(Cc2ccco2)C(=S)N1
Potency [1]: inactive
Potency [2]: inconclusive: 10 µM [inhibitor, partial curve]

CCOC(=O)c1sc2nc3c(SCCC(=O)O)cc(C(=O)c4cc(OC)ccc4O)cn3c(=O)c2c1C
Potency [1]: inconclusive: 14.1 µM [inhibitor, partial curve]
Potency [2]: inconclusive: 5.01 µM [inhibitor, partial curve, poor fit]
Potency [3]: active: 2.82 µM
